Results reported in patent US6461644B1, “Anesthetizing plastics, drug delivery plastics, and related medical products, systems and methods” (priority 1996, dated 2002).
Some of these results come from one statement about several compounds together.

Settings: PVC with specific viscosity of about 225
Procedure: In one case, in the course of manufacture, propafenone is dissolved in orally administratable solid granules such as coarse or fine powder of non-biodegradable thermoplastic resin. […] In another embodiment, the resin is formed on or as an implant to release the drug directly to heart tissue or the blood stream, or as a transdermal patch or as a drug-applying ear or nose plug.

In the case of `CCN(CC)CC(=O)Nc1c(C)cccc1C` [lidocaine base], the “amount received in solution in polyvinyl chloride” value is reported as no more than 50%.
